We go through 79 molecules from paper PMC12040169 (PLOS Biology, 2025).

This is one part of the list.

This test concerns T1, CTL2-GFP (C. trachomatis L2/434/Bu, GFP-expressing).
T1 construct: L2/434/Bu, GFP-expressing
The arrangement: species or system HeLa; Intracellular C. trachomatis growth in HeLa cells, bulk GFP fluorescence relative to DMSO. Conditions: bulk GFP, single well; 28.5 h, 10 µM; inhibitor.
Turning to `O=C(O)CCc1ccc(-c2ccc(F)cc2)n1CCc1ccccc1` [CBK265936], the “% of control remaining” value amounted to 102.126%. As for `c1ccc(CSc2ccc3nnc(-c4ccncc4)n3n2)cc1` [CBK287625], the “% of control remaining” value is listed as 141.489%.

For the molecule `COc1cccc(NC(=O)c2ccc(N(C)Cc3ccccc3)c([N+](=O)[O-])c2)c1` [CBK267827], the “% of control remaining” value was determined as 78.6251%. The figure for `Sc1nnc(COc2ccc(Cl)cc2Cl)n1Cc1ccccc1` [CBK263138] is 98.2532%; for `CC(C)NC(=O)CN1CCN(c2ccc(C#N)cc2Cl)CC1` [CBK305470] it is 86.4446%; for `Nc1ncc(-c2ccncc2)nc1-c1ccc(C=O)cc1` [CBK064102] it is 119.308%. The figure for `Cc1ccc(C(=O)NCc2nc3ccccc3[nH]2)c(N2CCOCC2)n1` [CBK106200] is 117.555%; for `COCCNC(=O)C1CCN(c2nc3c(-c4ccccc4F)csc3c(=O)[nH]2)CC1` [CBK215434] it is 130.402%; for `O=C(O)c1ccc(COc2ccc(/C=C3\SC(=S)N(Cc4cccnc4)C3=O)cc2Cl)cc1` [CBK264672] it is 100%. In the case of `CN1C(=O)C2(CC(=O)N(Cc3ccccc3)C2=O)c2cc(F)ccc21` (stereo not shown) [CBK075268] it was 105.141%. For `Cc1cc(C)c(S(=O)(=O)NC(C)C)c(C)c1-n1cnnn1` [CBK270197], the “% of control remaining” value was 105.641%.

On to `Cc1cc2nc(/C(C#N)=C/c3ccncc3)[nH]c2cc1C` [CBK268745], for which the “% of control remaining” value is listed as 166.273%. The figure for `Cc1nc(-c2ccccc2)sc1CNC(=O)Cc1ccccc1F` [CBK092372] is 82.085%.

As to `CCc1cc(CNC(=O)c2ccc(C)c(-n3nc(C)cc3C)c2)on1` [CBK281557], the “% of control remaining” value was 113.616%. The figure for `CS(=O)(=O)N(Cc1ccccc1)c1ccc(C(=O)Nc2ccccc2Cl)cc1` [CBK262745] is 120.924%; for `COc1ccc(S(=O)(=O)Nc2ccccc2C(=O)O)cc1OC` [CBK042368] it is 129.224%; for `COc1ccc(CN(C)c2c(C)nc3c(OCC(=O)C(C)(C)C)cccn23)cc1` [CBK147458] it is 140.223%. In the case of `Cc1cc(C)n(CCCC(=O)N2CCOCC(O)(CN3CCCC3)C2)n1` (stereo not shown) [CBK306550] it was 96.888%. The figure for `COc1ccc(C(NC(=O)CSCc2cccc(C(=O)O)c2)c2ccc(OC)cc2)cc1` [CBK296680] is 157.883%; for `CC1CCCC(C)N1C(=O)CN1C2CCC1CC(O)(c1ccco1)C2` (stereo not shown) [CBK284043] it is 138.871%; for `FC(F)(F)c1ccc(CN2CCCN(c3ccnc(OCC4COc5ccccc5O4)n3)CC2)cc1` (stereo not shown) [CBK083233T] it is 83.2802%. In the case of `Cc1ccc(C2=NN(C(=N)SC3CC(=O)N(c4ccc(C(=O)O)cc4)C3=O)C(c3ccc(Cl)cc3)C2)cc1` (stereo not shown) [CBK262472], the “% of control remaining” value came out at 103.167%. The figure for `Cc1cccc(-c2nc(CN(C)CC(=O)NC(C)C)no2)c1` [CBK305109] is 115.231%; for `CC(C)C(NC(=O)C1C=CCN1S(C)(=O)=O)c1cccs1` (stereo not shown) [CBK282701] it is 146.715%; for `COc1cc(Cn2c(=O)[nH]c3ncc(-c4ccco4)nc32)cc(OC)c1OC` [CBK064461] it is 87.9029%. For the molecule `Cc1cccc(C)c1-c1cn2ccnc2c(NC2CCOCC2)n1` [CBK037311], the “% of control remaining” value is listed as 218.347%. The figure for `Cn1[nH]c(CO)c(Cc2c(Cl)cccc2Cl)c1=O` [CBK092278T] is 155.373%. `O=C1CC(c2cccs2)CC(=O)C1=CNCCN1CCNCC1` (stereo not shown) [CBK264785]: the “% of control remaining” value worked out at 131.98%. In the case of `C[C@@H]1CN(C(=O)c2ccc3[nH]cnc3c2)C[C@H](C)O1` [CBK200120] it was 73.6813%; in that of `CC(=O)C1=C(O)C(=O)N(CCCC(=O)O)C1c1cccc([N+](=O)[O-])c1` (stereo not shown) [CBK263801], 115.169%; in that of `CCNC(=O)Nc1cc2cccnc2nc1-c1cccc(C(F)(F)F)c1` [CBK070645], 103.28%.

`Cc1ccc2c(c1)cc(C)c1nn(CC(=O)N3CCCCC3)c(=O)n12` [CBK283870]: the “% of control remaining” value is reported as 158.502%.

Take `Cc1ccc(OCC(=O)Nc2ccc3c(c2)oc2ccccc23)cc1[N+](=O)[O-]` [CBK266036]: the “% of control remaining” value came to 169.082%. With `CNc1ccc2cccc(OCCO)c2n1` [CBK149727], the “% of control remaining” value is 126.447%. The figure for `COCc1cc(=O)[nH]c(N2CCN(Cc3ccccc3)CC2)n1` [CBK270253] is 150.317%. In the case of `S=C(Nc1ccccc1)NC1C2CN3CCN(C2)CC1(c1ccccc1)C3` (stereo not shown) [CBK261936] it was 111.242%; in that of `O=C(NCC(=O)N1CCCC1c1cccs1)c1cccc(Br)c1` (stereo not shown) [CBK305655], 71.2547%; in that of `Cc1cc(C)c2nc(-n3cncn3)c(C)cc2c1` [CBK025958], 177.292%. In the case of `CCOc1ccc2nc(NC(=O)CC)sc2c1` [CBK287295] it was 71.9824%; in that of `Cc1cccc(OCCCC(=O)Nc2ccc(S(N)(=O)=O)cc2)c1C` [CBK267963], 127.953%.

Regarding `O=C(N[C@H]1C[C@H]2C(=O)NC[C@@H](CCC(=O)N3CCCCC3)N2C1)c1cccc(F)c1` [CBK289011], the “% of control remaining” value is 121.74%. In the case of `O=C(O)c1cn(C2CC2)c2cc(N3CCN(C(=S)Nc4ccc5c(c4)OCCO5)CC3)c(F)cc2c1=O` [CBK268916] it was 121.691%; in that of `O=C(O)CCC(=O)Nc1ccc(Br)cc1C(=O)c1ccccc1` [CBK262610], 95.598%; in that of `Oc1cccc(-c2nccnc2N2CCN(c3ccncc3)CC2)c1` [CBK037079], 149.138%. The figure for `CC(=O)Nc1ccc(/C=N/NC(=O)CN2CCCCCCC2)cc1` [CBK261617] is 126.579%; for `Cc1cc(=O)[nH]c(SCc2cc(=O)c3ccccc3[nH]2)n1` [CBK294410] it is 157.378%; for `O=C(O)CCC(=O)N1CCC(Cn2cncn2)(C2CCCCC2)CC1` [CBK136809] it is 105.494%. `Cc1ccc2cc(CNc3ccc4[nH]ncc4c3)c(=O)[nH]c2c1` [CBK281935]: the “% of control remaining” value is on record as 123.1%. In the case of `CN(C)CC(=O)N1c2ccccc2CCc2ccc(NC(=O)c3ccc([N+](=O)[O-])cc3)cc21` [CBK278207C] it was 103.003%; in that of `CCOC(=O)NC(=O)C(C#N)/C=N/NC(=O)CCCNc1ncc(C(F)(F)F)cc1Cl` (stereo not shown) [CBK008354], 92.2715%; in that of `CN1CCN(C(=O)C2CCN(CCCc3ccccc3)CC2)CC1` [CBK264326G], 145.164%. The figure for `CCCS(=O)(=O)NC[C@H]1C[C@@H]2CCN1C[C@@H]2c1cc(-c2cccs2)nn1C` [CBK289101] is 114.128%; for `CC(Nc1ccc(N2CCOCC2)cc1)C(=O)Nc1cccc(C#N)c1` (stereo not shown) [CBK305846] it is 114.067%. As for `NC(=O)c1ccccc1NC(=O)CSc1nc(N)cc(N)n1` [CBK267983], the “% of control remaining” value is reported as 100.365%. The figure for `CC(C)[C@H]1N=C2C=C(C(C)(C)C)ON2[C@H]2[C@H](O)[C@H](O)C[C@H]21` [CBK303234] is 156.995%; for `CCCCOc1ccc(OC(=O)C2CCN(CCCC)CC2)cc1` [CBK122680] it is 128.495%. In the case of `CCc1nnc(CN(C)Cc2c(C)nn(C)c2Cl)o1` [CBK304132] it was 132.852%. In the case of `NCc1ccc2cccc(O)c2n1` [CBK001376T] it was 18.0222%; in that of `Cc1c(NC(=O)CSc2ccc(Cl)cc2)cccc1-c1nc2ncccc2o1` [CBK268829], 94.0721%; in that of `O=C(Cc1ccccc1)N/N=C/c1nnco1` [CBK021274], 131.036%. On to `Cc1csc2ncc(C(=O)Nc3ccc(Cl)c(Cl)c3)c(=O)n12` [CBK287459], for which the “% of control remaining” value is 126.857%. In the case of `CCOC(=O)c1cnn(C2CCCN(Cc3cccn3C)C2)c1` (stereo not shown) [CBK305114] it was 101.125%. In the case of `Cc1cc(C(=O)NCCn2ccnc2C)c2cccc(Cl)c2n1` [CBK282460], the “% of control remaining” value is listed as 133.73%.

`CCCN1CC(NS(=O)(=O)c2ccc(OC)c3c2CCCC3)CC1=O` (stereo not shown) [CBK307098]: the “% of control remaining” value worked out at 125.906%. The figure for `O=C(N/N=C/c1ccc(-c2ccc([N+](=O)[O-])cc2)o1)c1cccnc1` [CBK262287] is 100%; for `CCCN1CCCC(NS(=O)(=O)c2cc(-n3cccn3)ccc2OC)C1` (stereo not shown) [CBK307426] it is 103.564%.

Consider `Nc1ccc([C@@H]2CN(Cc3ccccc3)C[C@]23CCCC(=O)N3)cc1` [CBK284649], for which the “% of control remaining” value stood at 141.912%. For the molecule `CC(C)(C)NC(NC(=O)Cc1ccccc1)C(Cl)(Cl)Cl` (stereo not shown) [CBK261090], the “% of control remaining” value was 101.532%. Regarding `CC(C)Nc1cc(Sc2ccc(F)cc2)ncn1` [CBK089498], the “% of control remaining” value came to 145.641%.

With `CN(C(=O)NC1CCCc2c1cnn2CCO)c1ccccc1F` (stereo not shown) [CBK304024], the “% of control remaining” value was 102.074%. The figure for `CN(C)C(=O)C1(Cc2ccc(-c3cccs3)cc2)CCN(C(=O)c2ccccc2)CC1` [CBK286270] is 105.239%. Regarding `Cc1ccc(-c2csc3ncn4nnnc4c23)cc1` [CBK019710], the “% of control remaining” value was 105.536%. In the case of `COC(=O)c1c(NC(=O)C2CC=CCC2C(=O)O)sc2c1CCC(c1ccccc1)C2` (stereo not shown) [CBK263683] it was 120.096%; in that of `CCc1nc2ccc(C(=O)Nc3ccc(Cl)c(Cl)c3)cn2c1N(C)Cc1ccc(OC)cc1` [CBK145585], 91.3527%; in that of `O=C(O)Cc1nnnn1-c1ccccc1` [CBK262984], 84.2499%.

For `CCN(CC)C(=O)CN1CCN(c2nccnc2OC)CC1` [CBK084221], the “% of control remaining” value was determined as 71.3069%. For `Cc1ccsc1CNC(=O)OCC1CCN(C)CC1` [CBK200149], the “% of control remaining” value came to 96.1407%. In the case of `O=C(COc1ccc(-c2cnc3ccccc3n2)cc1)c1cccc([N+](=O)[O-])c1` [CBK266367] it was 167.393%. For the molecule `O=C(CN1CCN(C2CCCC2)C(=O)C1)N1CCCc2ccccc21` [CBK282132], the “% of control remaining” value was 142.877%.
